PubChem BioAssay AID504786 | Drosophila RNAi Screening Center | 2011

Purpose: 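Positive regulators of HIF-driven reporter output in Drosophila cells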 (primary screen)
System: Drosophila S2 cells with a stable HIF luciferase reporter
Knock-down reagent: long dsRNA against Drosophila genes, about 0.2 µg dsRNA per well of a 384-well plate
Time to read-out: three days of knock-down, then 20 h of DFO before reading
Challenge: desferrioxamine (DFO) at 100 µM, an iron chelator that mimics hypoxia, for 20 h
Measurement: 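HIF reporter luminescence in cells given 100 µM DFO for 20 h, using the mouse ldh-a hypoxia-response element, scored as per-plate z-scores; higher means greater loss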
Reading the numbers: z-score: higher = stronger loss of HIF reporter signal
In all, the deposit lists about 21,000 reagents; shown is an unselected part of those with a known target gene and a result. 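Primary screen; positive scores mean lost reporter signal, so the sign may be inverted from the usual convention.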 A plus sign joins genes that one reagent is predicted to hit.

The first 6 entries, ahead of the listing:
target gene | dsRNA | z-score, replicate 1 | z-score, replicate 2
CG11474 | DRSC04112 | -0.3 | -0.3
CG4714 | DRSC06883 | -0.3 | -0.9
Mitofilin | DRSC16742 | 0 | 0.6
noi | DRSC12383 | 3.3 | 3.2
Sbat | DRSC00160 | 0.4 | 0.3
eIF3l | DRSC10530 | -0.5 | -1

Results, from the first entry:
target gene | dsRNA | z-score, replicate 1 | z-score, replicate 2
CG11474 | DRSC04112 | -0.3 | -0.3
CG4714 | DRSC06883 | -0.3 | -0.9
Mitofilin | DRSC16742 | 0 | 0.6
noi | DRSC12383 | 3.3 | 3.2
Sbat | DRSC00160 | 0.4 | 0.3
eIF3l | DRSC10530 | -0.5 | -1
gdrd | DRSC10020 | 0 | 0
CG4836 | DRSC15659 | -0.2 | -0.7
CG15729 (retired record) | DRSC19695 | 0.1 | 0.7
l(2)10685 | DRSC00665 | 0 | -0.1
CG18518 | DRSC01509 | 0.2 | -0.1
Xxylt | DRSC04107 | -0.2 | -0.3
rdgC | DRSC11387 | -0.1 | 0.3
ZnT86D | DRSC16091 | -0.1 | -0.1
CG7560 | DRSC10879 | -0.2 | -0.2
CG15283 | DRSC01980 | -0.1 | 0
kirre | DRSC18785 | 0 | -0.4
CG8516 | DRSC16437 | -0.3 | -0.4
CG1835 | DRSC20560 | -0.3 | -0.5
PH4alphaMP | DRSC17031 | -0.3 | -0.3
Dll | DRSC04610 | 0.2 | 0.3
lncRNA:CR32553 | DRSC19229 | -0.5 | -0.4
CG7606 | DRSC13246 | -0.3 | -0.4
CG7606 | DRSC16268 | -0.2 | 0.2
Nak | DRSC03379 | -0.3 | -0.2
CG12065 | DRSC17798 | -0.3 | -0.5
CG12065 | DRSC17799 | -0.3 | -0.3
Ugt317A1 | DRSC04470 | -0.4 | -0.3
abd-A | DRSC13179 | -0.7 | -0.7
abd-A | DRSC16897 | 4.6 | 5
RpS13 | DRSC03419 | 7.8 | 5.4
CG14810 | DRSC17693 | -0.2 | -0.2
CG14810 | DRSC17961 | -0.1 | -0.5
CG13921 | DRSC08390 | -0.1 | 0.2
meru | DRSC09400 | 0.7 | 0.1
meru | DRSC09899 | 0.4 | 0.3
meru | DRSC10215 | -0.3 | -0.4
armi | DRSC08193 | -0.3 | 0.4
ptc | DRSC05117 | -0.1 | -0.3
ptc | DRSC07669 | -0.2 | -0.5
Regnase-1 | DRSC14278 | -0.3 | -0.4
Dus1 | DRSC00623 | -0.1 | -0.4
CG32755 | DRSC18397 | -0.2 | -0.3
CG10352 | DRSC19353 | -0.2 | -0.3
Klp59D | DRSC04118 | -0.3 | 0
CG2616 | DRSC15440 | -0.4 | -0.5
RpS8 | DRSC16318 | 5 | 6.2
CG18301 | DRSC02662 | -0.3 | -0.3
CG41020 (retired record) | DRSC20866 | 0 | 0
mRpL54 | DRSC04545 | 0.8 | 1
Tti1 | DRSC15163 | 0 | 0.4
Tmtc2 | DRSC00272 | -0.3 | -0.3
Acp29AB | DRSC01857 | 0.7 | 1.7
CG1889 + CG43386 | DRSC17979 | -0.5 | -0.8
Karybeta3 | DRSC12355 | -0.3 | -0.3
fs(1)K10 | DRSC18775 | -0.2 | -0.2
Fmo-1 | DRSC04328 | -0.2 | -0.3
Ssl2 | DRSC14395 | -0.4 | -0.1
ergic53 | DRSC11389 | -0.3 | 0.7
CG46298 | DRSC06222 | -0.2 | 0
RfC4 | DRSC08691 | -0.2 | -0.1
ItgaPS4 | DRSC06630 | -0.2 | -0.4
Obp83cd | DRSC12267 | -0.3 | -0.1
l(1)G0196 | DRSC20591 | 0.2 | -0.4
l(1)G0196 | DRSC20628 | -0.4 | -1
l(1)G0196 | DRSC20629 | 0.2 | -0.5
cnir | DRSC00499 | -0.2 | -0.4
sphinx1 | DRSC10993 | -0.4 | -0.3
CG6428 | DRSC18402 | -0.3 | -0.3
CG13474 | DRSC10018 | 0 | -0.8
CG15044 | DRSC19620 | 0.1 | 1.1
wntD | DRSC16423 | -0.1 | -0.5
Lcp65Ae | DRSC11212 | 0.1 | 0.2
PKD | DRSC16200 | -0.2 | 0
CG16853 | DRSC01877 | -0.1 | -0.1
wek | DRSC03561 | -0.2 | -0.1
AANATL2 | DRSC03227 | -0.2 | -0.4
Aef1 | DRSC11605 | -0.4 | -0.4
Hipk | DRSC07885 | 0.3 | 0.4
Hipk | DRSC08507 | 0.3 | 0.4
CG11986 | DRSC14461 | -0.4 | -0.4
ATPsyndelta | DRSC18248 | 1.1 | 1.1
CG13216 | DRSC06338 | -0.2 | -0.1
ATbp | DRSC20906 | -0.9 | -0.9
CG13365 | DRSC17899 | -0.3 | -0.5
Ugt50B3 | DRSC04778 | 0 | -0.1
Ugt50B3 | DRSC04779 | 0.1 | -0.1
CG8032 | DRSC16365 | -0.3 | -0.4
Mal-A6 | DRSC07233 | -0.2 | -0.1
wgn | DRSC19998 | 0.3 | 0.1
CtsB | DRSC19361 | -0.1 | -0.2
CG8195 | DRSC07103 | -0.3 | -0.4
CG8320 + ATPCL | DRSC07147 | -0.4 | -0.6
CG8757 | DRSC11039 | -0.3 | -0.1
NK7.1 | DRSC16755 | -0.2 | -0.2
CG1598 | DRSC06598 | -0.2 | -0.5
CG5886 | DRSC15908 | -0.4 | -0.4
CG7523 | DRSC16254 | -0.1 | -0.7
Ent3 | DRSC09822 | 0.1 | 0
Cyp9h1 | DRSC07391 | -0.2 | -0.2
CG6244 | DRSC10609 | -0.2 | -0.4
CG5391 | DRSC15790 | 0.2 | -0.1
CG4842 | DRSC10453 | -0.1 | -1
RpS27 | DRSC14244 | 5.1 | 1.6
CG8349 | DRSC03083 | -0.3 | -0.6
chm | DRSC03341 | -0.3 | -0.1
